Test results: PubChem BioAssay AID504834 (National Center for Advancing Translational Sciences (NCATS), 2011)
Hit rate of the full screen: of about 320,000 compounds, about 22,000 (6.9%) were called active. Inconclusive means that the source gave no clear call. Such entries were picked first, then a sample of the others. Calls come from the whole dose curve; as a rule, active = well fitted inhibition curve with a large enough effect; inconclusive = small, poorly fitted or top-dose-only effect, or another doubt; inactive = no such curve, though single readings can be large or run the other way. Where the call is inconclusive, the potency comes from a doubtful curve fit.

Assay: Primary qHTS for delayed death inhibitors of the malarial parasite plastid, 96 hour incubation
Conditions: P. falciparum luciferase reporter growth; series mostly up to 28.7 µM
Outline: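 Two-generation exposure (96 h) targets delayed-death phenotype. Reporter parasites carrying integrated firefly luciferase, in red cells at 2% hematocrit and 0.05% parasitemia final, kept at 37 C, 5% CO2; luminescence loss indicates inhibition.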
Potency is the fitted concentration of half-maximal effect.

Question: With Oc1ccc(N=Cc2c(O)ccc3ccccc23)cc1 as the compound, how does the Potency read?
Answer: active: 6.57 µM

Question: Which Potency does the source give for CC(C)(C)NC(=O)CN(Cc1ccc2c(c1)OCO2)C(=O)CNS(=O)(=O)c1ccccc1 here?
Answer: inconclusive: 11.7 µM [inhibitor, single point]

Question: Which Potency does the source give for CCOc1ccc(NC(=O)c2c(OC)cccc2OC)cc1 here?
Answer: inconclusive: 9.28 µM [inhibitor, partial curve, poor fit]

Question: With Cc1ccc(NC(=O)COC(=O)CCNS(=O)(=O)c2ccc(C)c(C)c2)cc1 as the compound, how does the Potency read?
Answer: inactive

Question: For COCCN=c1scc(-c2cccs2)n1/N=C/c1ccc(O)c(O)c1O, which Potency is on record?
Answer: active: 4.15 µM

Question: Which Potency does the source give for CN1/C(=C\C=C2/SC(=S)N(CC(=O)O)C2=O)C(C)(C)c2ccccc21 here?
Answer: inconclusive: 6.57 µM [inhibitor, partial curve, poor fit]

Question: With COC(=O)CSc1nnc(NC(=O)CCc2ccccc2)s1 as the compound, how does the Potency read?
Answer: inactive

Question: Which Potency does the source give for CC(NC(=O)Nc1ccc(Cl)cc1)C1CCCO1 (stereo unspecified) here?
Answer: inconclusive: 18.5 µM [inhibitor, single point]

Question: Which Potency does the source give for Cc1ccccc1-n1c(Cc2cccs2)n[nH]c1=S here?
Answer: inactive

Question: Which Potency does the source give for COc1cc(CCC(=O)Nc2ccc(S(=O)(=O)NC3=NCCCCC3)cc2)cc(OC)c1OC here?
Answer: active: 10.4 µM

Question: Which Potency does the source give for NC1=NC(=O)/C(=C/c2cc(Br)c(O)c(Br)c2)S1 here?
Answer: inconclusive: 4.15 µM [inhibitor, single point]

Question: Which Potency does the source give for O=C(Nc1cccc(F)c1)C1CC(=O)N(c2ccc(Br)cc2)C1 (stereo unspecified) here?
Answer: inconclusive: 7.38 µM [inhibitor, partial curve, poor fit]

Question: With COc1ccc(S(=O)(=O)N(C)C2CCS(=O)(=O)C2)cc1OC (stereo unspecified) as the compound, how does the Potency read?
Answer: inactive

Question: Which Potency does the source give for CCSc1ncnc2c(C#N)c3n(c12)CCCCC3 here?
Answer: active: 11.7 µM

Question: Which Potency does the source give for Cc1ccc(N(C(=O)Cn2nnc(-c3ccc(F)cc3)n2)C(CC(C)C)C(=O)NCC2CCCO2)cc1 (stereo unspecified) here?
Answer: inconclusive: 18.5 µM [inhibitor, partial curve, poor fit]

Question: With Cc1cc(C)cc(N(C(=O)c2snc(C(N)=O)c2N)C(C(=O)NCC2CCCO2)c2cccs2)c1 (stereo unspecified) as the compound, how does the Potency read?
Answer: inactive

Question: With CCOC(=O)C1CCN(C(=O)C2CCN(S(=O)(=O)N3CCC4(CC3)OCCO4)CC2)CC1 as the compound, how does the Potency read?
Answer: inactive

Question: With CCOC(=O)c1c(C)c(C(=O)NCCN2CCOCC2)c(C)n1CC as the compound, how does the Potency read?
Answer: inconclusive: 18.5 µM [inhibitor, single point]

Question: With CSc1ccccc1-c1nnc(-c2ccc(C)cc2)o1 as the compound, how does the Potency read?
Answer: inactive

Question: For O=C(NCc1ccncc1)Nc1ccc2c(c1)OCO2, which Potency is on record?
Answer: inconclusive: 4.15 µM [inhibitor, partial curve, poor fit]

Question: With CC1=C(C(=O)O)N2C(=O)C(NC(=O)c3nn(C)c(C)c3Cl)C2SC1 (stereo unspecified) as the compound, how does the Potency read?
Answer: inactive

Question: For Cc1ccc(C(C)NC(=O)C2CCCC2)c(C)c1 (stereo unspecified), which Potency is on record?
Answer: inactive

Question: With CCOC(=O)CSc1nnc(CNC(=O)c2cccs2)n1-c1cc(C)ccc1C as the compound, how does the Potency read?
Answer: inconclusive: 14.7 µM [inhibitor, partial curve]

Question: With Cc1cccn2c(=O)c(/C=C(\C#N)C(N)=O)c(N3CCN(c4cccc(Cl)c4)CC3)nc12 as the compound, how does the Potency read?
Answer: active: 9.28 µM

Question: Which Potency does the source give for CCOC(=O)COc1c(Br)cc(C2NC(=O)NC(C)=C2C(C)=O)cc1OC (stereo unspecified) here?
Answer: inconclusive: 11.7 µM [inhibitor, partial curve, poor fit]

Question: For O=C(O)C1CCCN(S(=O)(=O)c2cccs2)C1 (stereo unspecified), which Potency is on record?
Answer: inconclusive: 0.465 µM [inhibitor, partial curve, poor fit]

Question: Which Potency does the source give for Cc1ccc(NP(=O)(Oc2ccccc2F)Oc2ccccc2F)cc1C here?
Answer: inconclusive: 16.5 µM [inhibitor, single point]

Question: Which Potency does the source give for c1ccc(CN2CCC(Nc3ncnc4sccc34)CC2)cc1 here?
Answer: inconclusive: 18.5 µM [inhibitor, single point]

Question: Which Potency does the source give for Cc1ccc(NC(=S)N2CCCC2)cc1C here?
Answer: inactive

Question: With COc1ccc(-n2c(C)cc(C(=O)CN3C(=O)c4ccccc4C3=O)c2C)cc1 as the compound, how does the Potency read?
Answer: inconclusive: 9.28 µM [inhibitor, single point]

Question: For CN1CCN(S(=O)(=O)c2cccc(C(=O)N(C)Cc3c(F)cccc3Cl)c2)CC1, which Potency is on record?
Answer: inconclusive: 18.5 µM [inhibitor, single point]

Question: With O=C(CN1CCOCC1)Nc1ccc(Br)cc1C(=O)c1ccccc1 as the compound, how does the Potency read?
Answer: inconclusive: 18.5 µM [inhibitor, single point]

Question: With Cc1cc(-c2cc(C(=O)NCc3ccccc3)on2)nc(S(C)(=O)=O)n1 as the compound, how does the Potency read?
Answer: inconclusive: 11.7 µM [inhibitor, single point]

Question: With CC(=O)Nc1cc(C(=O)N2CCC3(CC2)OCCO3)ccc1Sc1ccc(C)cc1 as the compound, how does the Potency read?
Answer: inconclusive: 0.0738 µM [inhibitor, partial curve, poor fit]

Question: Which Potency does the source give for CCc1nnc(NS(=O)(=O)c2ccc(NC(=S)NC(=O)/C=C/c3ccc([N+](=O)[O-])cc3)cc2)s1 here?
Answer: inactive

Question: For O=C(Nc1ccc(N2CCN(C(=O)c3cccs3)CC2)c(Cl)c1)c1ccco1, which Potency is on record?
Answer: inconclusive: 3.7 µM [inhibitor, partial curve, poor fit]

Question: With O=C(O)CSc1nnc(-c2ccc(Cl)cc2Cl)n1-c1ccc(Br)cc1 as the compound, how does the Potency read?
Answer: inconclusive: 5.22 µM [inhibitor, partial curve]

Question: Which Potency does the source give for CCCc1cc(=O)c2ccc(OCC(C)=O)cc2o1 here?
Answer: inactive

Question: For O=C(N/N=C/C=C\c1ccccc1[N+](=O)[O-])c1cccs1, which Potency is on record?
Answer: active: 2.94 µM

Question: Which Potency does the source give for OCC1(CC2CCCCO2)CCN(Cc2nc3ccccc3[nH]2)CC1 (stereo unspecified) here?
Answer: inactive

Question: For C/C(=N\NC(=O)c1c(Cl)cnn1C)c1ccc(NC(=O)c2ccc(Br)o2)cc1, which Potency is on record?
Answer: inconclusive: 18.5 µM [inhibitor, partial curve, poor fit]

Question: For C#CCSc1nc(=O)c2cccnc2n1-c1ccc(C)cc1, which Potency is on record?
Answer: inconclusive: 9.28 µM [inhibitor, single point]

Question: With NC(=O)c1ccsc1NC(=O)COC(=O)/C=C/c1ccccc1 as the compound, how does the Potency read?
Answer: inconclusive: 18.5 µM [inhibitor, partial curve, poor fit]

Question: For CCc1cccc(CC)c1NC(=O)c1ccccc1, which Potency is on record?
Answer: inconclusive: 13.1 µM [inhibitor, single point]

Question: Which Potency does the source give for O=[N+]([O-])c1ccc2nccn2c1 here?
Answer: inactive

Question: For Cc1noc(/C=C/N(C)C)c1S(=O)(=O)N1CCCC(C(=O)NCc2ccc(F)cc2)C1 (stereo unspecified), which Potency is on record?
Answer: inconclusive: 18.5 µM [inhibitor, single point]
